Library screen at single concentrations

Amino acid sequences for entries named in this document (tags omitted). Residues count along the entry.
UniProt P9WPC5, whole entry: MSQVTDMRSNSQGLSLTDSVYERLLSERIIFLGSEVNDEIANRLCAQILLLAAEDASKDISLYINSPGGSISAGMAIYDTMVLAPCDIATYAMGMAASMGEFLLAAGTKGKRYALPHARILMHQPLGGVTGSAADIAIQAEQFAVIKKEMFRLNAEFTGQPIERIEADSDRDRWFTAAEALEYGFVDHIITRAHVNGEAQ
UniProt P9WPC3, whole entry partner: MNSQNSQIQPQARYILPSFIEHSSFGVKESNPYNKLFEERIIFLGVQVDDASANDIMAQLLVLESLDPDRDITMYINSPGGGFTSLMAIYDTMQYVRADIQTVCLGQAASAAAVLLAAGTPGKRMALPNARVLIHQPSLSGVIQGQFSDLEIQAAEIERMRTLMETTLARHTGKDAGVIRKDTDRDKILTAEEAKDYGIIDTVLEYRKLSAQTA
UniProt Q8IDJ8, 1-583: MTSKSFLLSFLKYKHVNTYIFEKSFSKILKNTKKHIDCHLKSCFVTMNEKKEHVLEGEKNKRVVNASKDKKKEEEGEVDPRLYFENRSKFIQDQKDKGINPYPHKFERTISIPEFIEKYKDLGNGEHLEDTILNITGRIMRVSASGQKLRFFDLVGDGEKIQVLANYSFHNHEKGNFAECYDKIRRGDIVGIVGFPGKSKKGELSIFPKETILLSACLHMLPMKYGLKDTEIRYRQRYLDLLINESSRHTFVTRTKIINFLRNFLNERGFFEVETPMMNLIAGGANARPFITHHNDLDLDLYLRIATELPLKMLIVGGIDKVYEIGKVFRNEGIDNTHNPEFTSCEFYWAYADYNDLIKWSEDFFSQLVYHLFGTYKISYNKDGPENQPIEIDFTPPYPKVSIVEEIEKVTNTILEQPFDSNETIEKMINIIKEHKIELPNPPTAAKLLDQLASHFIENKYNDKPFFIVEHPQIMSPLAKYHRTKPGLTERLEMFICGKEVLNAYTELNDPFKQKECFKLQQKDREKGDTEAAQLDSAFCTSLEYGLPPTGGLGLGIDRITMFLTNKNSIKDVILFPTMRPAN
UniProt P9WFT3, whole entry: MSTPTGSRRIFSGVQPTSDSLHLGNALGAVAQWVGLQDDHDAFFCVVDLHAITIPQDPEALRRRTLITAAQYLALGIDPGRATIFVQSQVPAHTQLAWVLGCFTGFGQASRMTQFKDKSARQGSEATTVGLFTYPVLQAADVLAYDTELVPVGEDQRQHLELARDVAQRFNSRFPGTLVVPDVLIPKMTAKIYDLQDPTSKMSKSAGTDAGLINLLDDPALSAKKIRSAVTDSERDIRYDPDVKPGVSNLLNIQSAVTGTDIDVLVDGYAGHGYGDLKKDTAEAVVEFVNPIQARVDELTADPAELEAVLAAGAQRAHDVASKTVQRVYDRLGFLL
UniProt A4I591, 1-473: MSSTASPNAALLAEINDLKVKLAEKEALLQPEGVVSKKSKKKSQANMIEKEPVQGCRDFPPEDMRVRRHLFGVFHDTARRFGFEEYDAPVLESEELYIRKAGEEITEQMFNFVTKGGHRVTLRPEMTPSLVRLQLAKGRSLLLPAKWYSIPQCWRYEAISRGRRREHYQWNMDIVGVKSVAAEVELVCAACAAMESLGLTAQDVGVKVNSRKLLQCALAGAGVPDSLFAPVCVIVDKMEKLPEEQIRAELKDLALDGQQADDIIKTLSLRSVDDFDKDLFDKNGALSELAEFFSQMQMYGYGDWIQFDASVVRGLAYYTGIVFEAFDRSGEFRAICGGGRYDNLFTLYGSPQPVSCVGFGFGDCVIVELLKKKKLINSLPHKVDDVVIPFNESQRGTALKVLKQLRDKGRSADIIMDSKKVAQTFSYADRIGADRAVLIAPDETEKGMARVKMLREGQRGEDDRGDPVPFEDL
UniProt Q4DA54, 1-478: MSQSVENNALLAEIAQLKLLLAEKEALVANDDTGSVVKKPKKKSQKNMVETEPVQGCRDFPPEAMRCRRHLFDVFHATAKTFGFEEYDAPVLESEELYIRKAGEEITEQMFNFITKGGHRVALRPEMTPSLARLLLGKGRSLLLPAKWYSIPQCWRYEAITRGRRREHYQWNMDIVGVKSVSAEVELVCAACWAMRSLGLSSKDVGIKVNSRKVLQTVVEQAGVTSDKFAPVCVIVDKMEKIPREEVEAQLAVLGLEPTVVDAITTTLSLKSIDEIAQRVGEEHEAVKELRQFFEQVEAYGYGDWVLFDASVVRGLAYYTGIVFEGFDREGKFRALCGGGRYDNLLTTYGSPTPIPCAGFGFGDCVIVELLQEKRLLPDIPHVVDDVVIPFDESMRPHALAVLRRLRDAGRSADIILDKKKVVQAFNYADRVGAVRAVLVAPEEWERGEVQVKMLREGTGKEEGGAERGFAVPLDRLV

Source: ChEMBL document CHEMBL3988442, “University of Dundee, Small-Polar-MMV Screening Library” (2021).

Each number is a percent effect as filed. The controls that fix the scale are not given in the record; negative values are as filed. This is an unselected part of the compounds tested. Two or more numbers in one place are separate tests of the same structure; such repeats can differ widely. A dash means the value is not listed here; it may have been measured.

ClpP1P2: 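ClpP1P2, Mycobacterium tuberculosis (UniProt P9WPC5 and UniProt P9WPC3). Protease assay of ClpP1P2, read by the AMC dye that it sets free. Compounds at 50 µM. Direction is inferred from only a few compounds that gave an IC50; most scored high, so higher reads as stronger inhibition. Most other retested compounds had strongly negative values. Size under these conditions: about 69,000 compounds, about 10 of them at 50% or above in at least one test.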
PfKRS1: 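Enzyme assay of the cytosolic lysyl-tRNA synthetase in 384-well plates, read by luminescence. Target: Lysine-tRNA ligase, Plasmodium falciparum 3D7 (UniProt Q8IDJ8). Tested at 30 µM. Higher reads as stronger inhibition, judged from the few compounds that gave an IC50. Size under these conditions: about 69,000 compounds, about 49 of them at 50% or above in at least one test.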
MtTrpRS: 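Enzyme assay of tryptophanyl-tRNA synthetase; the read-out is not stated. Target: Tryptophan-tRNA ligase, Mycobacterium tuberculosis (UniProt P9WFT3). Concentration: 10 µM. Higher most likely means stronger inhibition; the record gives no direction and few retests gave an IC50. Size under these conditions: about 65,000 compounds, about 64 of them at 50% or above in at least one test.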
LiHisRS: 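Enzyme assay of histidyl-tRNA synthetase; the read-out is not stated. Target: Histidine-tRNA ligase, Leishmania infantum (UniProt A4I591). Compounds at 30 µM. The record gives no direction; compounds that gave an IC50 in retests scored well above the rest, so higher reads as stronger inhibition. The assay is labelled LdHisRS but filed under L. infantum. Size under these conditions: about 69,000 compounds, about 410 of them at 50% or above in at least one test.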
TcHisRS: 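Enzyme assay of histidyl-tRNA synthetase; the read-out is not stated. Target: Histidine-tRNA ligase, Trypanosoma cruzi CL Brener (UniProt Q4DA54). Concentration: 30 µM. The record gives no direction; compounds that gave an IC50 in retests scored well above the rest, so higher reads as stronger inhibition. Of about 69,000 compounds tested this way, about 31 (0.045%) reached 50% or more in at least one test.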
Leishmania in macrophages: 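Cell assay of Leishmania donovani living inside macrophages; the read-out is not stated. Concentration: 30 µM. Higher reads as stronger inhibition (inferred: compounds with an IC50 in retests scored well above the rest). About 69,000 compounds were tested under these conditions; 1.5% (about 1,000) showed 50% or more at least once.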

SMILES | ClpP1P2 | PfKRS1 | MtTrpRS | LiHisRS | TcHisRS | Leishmania in macrophages
CCSc1ccc(C(=O)N2CC[C@](O)(CC)[C@H](O)C2)s1 | 3.04% | 1.84% | 7.048% | 11.19% | 4.478% | 12.02%
COc1ccc(CNCC2CNc3ccnn3C2)cn1 (configuration not stated) | -13.7% | 1.327% | 7.595% | 12.17% | 6.322% | 22.43%
Cc1nn(C)c(N2CCOCC2)c1CNCc1ccnc(N(C)C)c1 | -3.859% | 4.752% | -0.07819% | 5.333% | 1.887% | 4.282%
Cc1nn(C)c(C)c1C(C(=O)O)N1CCc2ccccc2C1 (configuration not stated) | -1.767% | 3.988% | -1.183% | 4.478% | 2.128% | -8.364%
O[C@@H]1C[C@@](CNCC2CCCC2)(COc2cccnc2)C[C@@H]1O | -0.2705% | 4.641% | -0.5311% | 17.57% | 6.522% | -
CSc1nccc(N2CCN(C)C3(CCNC(=O)CC3)C2)n1 (configuration not stated) | -13.01% | 9.232% | 4.085% | 20.39% | 3.734% | 23.38%
Cc1cc(C)nc(C2CCN(C(=O)c3cnco3)C2)n1 (configuration not stated) | -8.105% | 0.5453% | -2.145% | 1.053% | 6.716% | 6.729% and 21.29%
CCCn1nnc(NCc2ccc(-c3ccc(Br)cc3)o2)n1 | 2.041% | 5.734% | 3.417% | -4.301% | -8.808% | -28.31%
COc1ccc(-c2cc3cccn(CC(=O)N4CCOCC4)c-3n2)cc1 | -3527% | -3.234% | 12.72% | 12.77% | 10.9% | 23.65%
CCc1noc(CN(CCc2ccccc2)C2CCN(C)CC2)n1 | -15.8% | 2.483% | 0.4341% | 14.17% | -2.899% | -32.18%
CCc1cnccc1C(=O)NC1CCN(Cc2ccccc2F)CC1 | -9.653% | 3.72% | 1.152% | 14.29% | 7.921% | 12.97%
CC(Cc1cccc(Cl)c1)NC(=O)NCc1ncnn1C (configuration not stated) | -1.375% | 0.9056% | 17.4% | 11.67% | -1.136% | -21.16%
CS(=O)(=O)c1cccc(C(N)c2ccc(Cl)cc2)c1 (configuration not stated) | -13.27% | -1.125% | -1.038% | 3.571% | 0.5764% | 13.76%
O=C1CC[C@H]2[C@H](CCN2C(=O)N2CCCC2)N1Cc1ccncc1 | -12.71% | 3.16% | 1.798% | 15.38% | 0% | -
CCOc1ccccc1OCC(=O)NCc1ncc(C)c(OC)c1C | 4.649% | 3.238% | 0.7407% | 17.78% | 8.333% | 15.01%
Cc1c(-c2cnn(C)c2)nc(N)c(C#N)c1-c1ccc(CO)o1 | -16.86% | 0.4673% | -4.333% | 19.74% | 8.696% | -18.06%
N#Cc1ccccc1NC(=O)C1CN(C(=O)c2ccc3c(c2)OCO3)C1 | -12.53% | 5.634% | 0.618% | 25.97% | 7.273% | -15.61%
CCOCCN1CCN(CC(=O)NC2(C#N)CCCC2)CC1CC (configuration not stated) | -9.071% | -2.641% | 2.039% | -8.333% | 5.882% | 4.261%
Fc1cc(CN2CCOC3(CCOCC3)C2)ccc1Cl | -10.7% | 0.4912% | -0.7435% | 13.7% | -2.703% | -14.99%
C[C@H]1CN(c2ccccn2)C[C@@]12CCN(c1cccnc1)C2=O.O=C(O)C(F)(F)F.O=C(O)C(F)(F)F | - | - | - | - | - | 28.73%
COCCN1C[C@@H]2[C@@H](OC)CCN(C(=O)c3cccc(OC)c3)[C@@H]2C1 | 7.465% | 1.001% | -3.936% | 9.735% | 4% | -
Cc1cc(-c2ccc(C(C)N3CCCCC3)cc2)cnc1N (configuration not stated) | 2.672% | 9.299% | -1.005% | 22.37% | 6.404% | 40.03%
CCn1c(NCc2cccnc2)nc2c(C)nn(C)c2c1=O | -14.96% | 2.774% | -2.85% | 6.897% | 0.8696% | -70.2%
CCN1CCCC1CNCc1cc2cc3c(cc2[nH]c1=O)OCCO3 (configuration not stated) | -117.4% | 2.848% | -3.465% | 38.03% | 5.385% | 20.91%
CC/C=C(\C)CN1CCC(CNC(=O)c2c[nH]c(=O)c(Cl)c2)C1 (configuration not stated) | 12.67% | -1.778% | -2.166% | 12.86% | 8.511% | 2.08%
O=C(c1ccnn1-c1ccc2ccccn12)N1CCOCC1 | -3.157% | 4.82% | - | 8.182% | 4.233% | 28.76%
Cc1ccc(CN(C)C(=O)C(C)n2ccnc2C(C)C)o1 (configuration not stated) | 2.48% | 4.867% | -3.602% | 15.38% | 6.468% | 19.3%
O=S(=O)(NCCn1cc(C2CCOC2)nn1)c1ccc(Cl)cc1 (configuration not stated) | 5.73% | 4.585% | -1.852% | -2.222% | 3.571% | -19.87%
Cc1ccc(C#N)c(N2CCC3(CCCN(C4CCOCC4)C3=O)C2)n1 (configuration not stated) | -165.8% | 5.725% | 3.121% | 20.21% | 6.03% | 39.02%
CN(C(=O)CCOc1ccccc1)C1CCN(CC2CCOC2)CC1 (configuration not stated) | -1.517% | 3.768% | -0.6938% | 11.76% | 6.878% | 15.29%
COCC1CC2(CCN(Cc3cnn(C)c3)CC2)CN1c1ncccn1.O=C(O)C(F)(F)F.O=C(O)C(F)(F)F (configuration not stated) | - | - | - | - | - | 27.6%
Cc1cc(C)n(CC2CCCN2C(=O)c2ccc3[nH]nnc3c2)n1 (configuration not stated) | -4.514% | -1.333% | 3.065% | 19.23% | 1.653% | 32.25%
CC(CN1CCCC1=O)NC(=O)c1ccc(C(F)(F)F)[nH]c1=O (configuration not stated) | -3.601% | 0.9742% | 6.684% | 29.63% | 5.521% | 17.48%
CN(Cc1ncc(C(C)(C)C)o1)CC1CCCN1c1cccnn1 (configuration not stated) | -7.482% | -11.91% | -4.122% | 13.21% | 11.67% | -43.53%
O=C(OCc1cc(=O)n2cc(Br)ccc2n1)c1ccc2c(c1)OCO2 | -9.374% | 0.09152% | 2.783% | 14.29% | -1.98% | -4.386%
COc1ccc(-c2nnc(C(C)N3CCC4(CC3)OCCO4)o2)cc1 (configuration not stated) | -4.313% | 0.7141% | -2.734% | 12.33% | 1.97% | -7.623%
CCn1nc(CNC(=O)C2CCCN(CC(N)=O)C2)c2ccccc21 (configuration not stated) | 0.5568% | 0.1586% | -4.47% | 18.42% | 2.793% | 8.059%
CCOc1ccc(Cl)cc1CCNC(=O)Cn1ccccc1=O | -2.093% | 4.079% | -2.721% | 5.31% | 0.8929% | -0.8795%
Cc1c(C(=O)N2CCC3(CCCN(CC4CC4)C3=O)C2)ccn1C (configuration not stated) | 8.126% | -4.011% | -2.694% | 17.74% | 2.041% | -57.57%
O=C(NC[C@H]1OC[C@@H](NCc2ccccn2)[C@@H]1O)c1ccc(F)cc1 | -1.598% | -0.9836% | 2.2% | 12.16% | -4.348% | -21.08%
CCCN1C(=O)C2(CCCCC2)NC1c1c[nH]nc1-c1cccnc1 (configuration not stated) | -0.7793% | 3.562% | 4.193% | 16.96% | -1.724% | -15.97%
CN(C)C(=O)CN1C[C@H]2CCN(C(=O)C3CCCO3)CC[C@H]2S1(=O)=O (some centres not stated) | -2.258% | 4.232% | -6.58% | 10.34% | 0% | -
CCOc1cc(C(=O)N2CCCC(c3nc(C)c(C)s3)C2)ccn1 (configuration not stated) | -25.14% | -0.9387% | -2.861% | 8.036% | 1.156% | -15.27%
Cc1ccc(C(=O)N2CCCCC2CNC(N)=O)cc1F (configuration not stated) | -34.05% | 0.493% | 0.2201% | 11.61% | 4.046% | 8.753%
O=C1NCCN(C(=O)c2cn3ccsc3n2)C1Cc1ccccc1 (configuration not stated) | 11.17% | 2.091% | -1.868% | 8.333% | 5.195% | -8.604%
CCOc1cc(NC(=O)N2CCOC3(CCC3)C2)ccc1C | 0.1108% | -1.073% | -0.1023% | 0% | 0.5525% | -11.12%
Cc1cccc(CN2CCn3cc(CNC(=O)CC4CC4)nc3C2)n1 | -0.7494% | -2.856% | 6.008% | 11.76% | 4.926% | 35.84%
COCC(=O)N1CCN(C(C)c2ncc(-c3ccccc3)o2)CC1 (configuration not stated) | -11.97% | -1.165% | -4.897% | -1.205% | 0.4975% | 10.87%

6 of the entries, repeated:

SMILES,ClpP1P2,PfKRS1,MtTrpRS,LiHisRS,TcHisRS,Leishmania in macrophages
COCCN1C[C@@H]2[C@@H](OC)CCN(C(=O)c3cccc(OC)c3)[C@@H]2C1,7.465%,1.001%,-3.936%,9.735%,4%,-
Cc1ccc(C(=O)N2CCCCC2CNC(N)=O)cc1F (configuration not stated),-34.05%,0.493%,0.2201%,11.61%,4.046%,8.753%
Cc1cccc(CN2CCn3cc(CNC(=O)CC4CC4)nc3C2)n1,-0.7494%,-2.856%,6.008%,11.76%,4.926%,35.84%
O=C1NCCN(C(=O)c2cn3ccsc3n2)C1Cc1ccccc1 (configuration not stated),11.17%,2.091%,-1.868%,8.333%,5.195%,-8.604%
CSc1nccc(N2CCN(C)C3(CCNC(=O)CC3)C2)n1 (configuration not stated),-13.01%,9.232%,4.085%,20.39%,3.734%,23.38%
CCOCCN1CCN(CC(=O)NC2(C#N)CCCC2)CC1CC (configuration not stated),-9.071%,-2.641%,2.039%,-8.333%,5.882%,4.261%